Data reported in the supplement of paper PMC10849652.
Some of the results follow.

Amino acid sequences for entries named in this document (tags omitted). A change or cut given only in a name is not applied to a line headed by its entry.
UniProt Q92615, whole entry, looked up: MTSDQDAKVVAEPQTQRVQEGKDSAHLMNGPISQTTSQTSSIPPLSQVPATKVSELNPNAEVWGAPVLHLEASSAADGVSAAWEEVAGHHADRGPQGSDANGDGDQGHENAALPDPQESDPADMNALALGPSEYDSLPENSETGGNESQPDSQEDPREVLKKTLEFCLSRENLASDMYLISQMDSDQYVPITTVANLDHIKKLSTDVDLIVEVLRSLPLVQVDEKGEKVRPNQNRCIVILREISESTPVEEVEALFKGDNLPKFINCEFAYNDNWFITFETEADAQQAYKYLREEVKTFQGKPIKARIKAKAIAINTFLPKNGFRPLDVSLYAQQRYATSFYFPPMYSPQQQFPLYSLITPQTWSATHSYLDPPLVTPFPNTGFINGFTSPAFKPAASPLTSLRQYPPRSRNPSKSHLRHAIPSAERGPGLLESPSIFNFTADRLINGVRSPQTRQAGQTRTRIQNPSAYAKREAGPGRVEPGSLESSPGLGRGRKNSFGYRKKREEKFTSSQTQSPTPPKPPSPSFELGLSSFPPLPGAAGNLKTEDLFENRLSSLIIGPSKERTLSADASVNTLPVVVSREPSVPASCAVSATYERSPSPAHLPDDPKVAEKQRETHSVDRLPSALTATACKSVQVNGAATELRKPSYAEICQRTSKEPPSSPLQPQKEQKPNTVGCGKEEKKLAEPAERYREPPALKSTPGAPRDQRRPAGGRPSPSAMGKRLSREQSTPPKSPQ
UniProt Q9H0B6: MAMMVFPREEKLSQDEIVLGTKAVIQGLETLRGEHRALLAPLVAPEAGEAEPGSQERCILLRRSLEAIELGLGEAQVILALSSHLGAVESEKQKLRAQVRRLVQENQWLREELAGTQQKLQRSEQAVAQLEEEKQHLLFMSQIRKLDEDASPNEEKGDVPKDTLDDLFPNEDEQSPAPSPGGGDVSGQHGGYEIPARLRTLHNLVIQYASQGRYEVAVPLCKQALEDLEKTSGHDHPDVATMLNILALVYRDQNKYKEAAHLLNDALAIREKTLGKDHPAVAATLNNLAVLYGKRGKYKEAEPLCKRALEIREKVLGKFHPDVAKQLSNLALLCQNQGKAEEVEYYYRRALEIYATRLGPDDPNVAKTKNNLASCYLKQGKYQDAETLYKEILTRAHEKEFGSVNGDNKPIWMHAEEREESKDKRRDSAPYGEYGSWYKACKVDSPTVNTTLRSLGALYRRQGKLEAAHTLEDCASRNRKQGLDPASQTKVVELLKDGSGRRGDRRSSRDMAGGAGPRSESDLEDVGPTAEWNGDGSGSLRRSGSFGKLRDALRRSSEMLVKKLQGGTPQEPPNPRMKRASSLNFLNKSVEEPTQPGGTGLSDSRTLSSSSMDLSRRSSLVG
UniProt O94953: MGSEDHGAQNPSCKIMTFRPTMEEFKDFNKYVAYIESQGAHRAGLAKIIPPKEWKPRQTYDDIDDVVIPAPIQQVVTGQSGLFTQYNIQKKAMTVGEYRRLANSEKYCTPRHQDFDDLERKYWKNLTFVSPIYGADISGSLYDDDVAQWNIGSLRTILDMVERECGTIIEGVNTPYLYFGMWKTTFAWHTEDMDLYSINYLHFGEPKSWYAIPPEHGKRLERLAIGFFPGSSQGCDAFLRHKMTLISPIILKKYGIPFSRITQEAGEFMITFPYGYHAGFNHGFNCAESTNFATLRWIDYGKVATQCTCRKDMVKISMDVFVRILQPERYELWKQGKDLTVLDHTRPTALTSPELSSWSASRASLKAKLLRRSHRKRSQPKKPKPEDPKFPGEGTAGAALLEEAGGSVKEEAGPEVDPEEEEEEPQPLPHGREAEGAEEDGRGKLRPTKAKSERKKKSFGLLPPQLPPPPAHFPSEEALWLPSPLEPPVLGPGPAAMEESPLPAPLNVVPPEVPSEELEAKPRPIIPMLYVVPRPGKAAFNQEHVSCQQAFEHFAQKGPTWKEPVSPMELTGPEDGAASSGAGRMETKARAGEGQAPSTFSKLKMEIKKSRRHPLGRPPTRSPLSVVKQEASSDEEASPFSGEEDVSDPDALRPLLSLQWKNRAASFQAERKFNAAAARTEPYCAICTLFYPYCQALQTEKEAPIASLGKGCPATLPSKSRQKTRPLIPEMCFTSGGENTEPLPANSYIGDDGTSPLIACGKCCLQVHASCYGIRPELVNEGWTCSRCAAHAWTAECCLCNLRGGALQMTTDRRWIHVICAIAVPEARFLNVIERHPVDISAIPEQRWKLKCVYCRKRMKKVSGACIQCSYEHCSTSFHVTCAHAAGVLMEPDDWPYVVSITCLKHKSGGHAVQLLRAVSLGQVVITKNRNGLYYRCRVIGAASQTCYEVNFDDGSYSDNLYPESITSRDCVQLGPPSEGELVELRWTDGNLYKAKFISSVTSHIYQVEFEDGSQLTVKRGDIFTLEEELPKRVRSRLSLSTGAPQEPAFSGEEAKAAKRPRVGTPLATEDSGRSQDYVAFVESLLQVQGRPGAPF
UniProt Q8IZD2: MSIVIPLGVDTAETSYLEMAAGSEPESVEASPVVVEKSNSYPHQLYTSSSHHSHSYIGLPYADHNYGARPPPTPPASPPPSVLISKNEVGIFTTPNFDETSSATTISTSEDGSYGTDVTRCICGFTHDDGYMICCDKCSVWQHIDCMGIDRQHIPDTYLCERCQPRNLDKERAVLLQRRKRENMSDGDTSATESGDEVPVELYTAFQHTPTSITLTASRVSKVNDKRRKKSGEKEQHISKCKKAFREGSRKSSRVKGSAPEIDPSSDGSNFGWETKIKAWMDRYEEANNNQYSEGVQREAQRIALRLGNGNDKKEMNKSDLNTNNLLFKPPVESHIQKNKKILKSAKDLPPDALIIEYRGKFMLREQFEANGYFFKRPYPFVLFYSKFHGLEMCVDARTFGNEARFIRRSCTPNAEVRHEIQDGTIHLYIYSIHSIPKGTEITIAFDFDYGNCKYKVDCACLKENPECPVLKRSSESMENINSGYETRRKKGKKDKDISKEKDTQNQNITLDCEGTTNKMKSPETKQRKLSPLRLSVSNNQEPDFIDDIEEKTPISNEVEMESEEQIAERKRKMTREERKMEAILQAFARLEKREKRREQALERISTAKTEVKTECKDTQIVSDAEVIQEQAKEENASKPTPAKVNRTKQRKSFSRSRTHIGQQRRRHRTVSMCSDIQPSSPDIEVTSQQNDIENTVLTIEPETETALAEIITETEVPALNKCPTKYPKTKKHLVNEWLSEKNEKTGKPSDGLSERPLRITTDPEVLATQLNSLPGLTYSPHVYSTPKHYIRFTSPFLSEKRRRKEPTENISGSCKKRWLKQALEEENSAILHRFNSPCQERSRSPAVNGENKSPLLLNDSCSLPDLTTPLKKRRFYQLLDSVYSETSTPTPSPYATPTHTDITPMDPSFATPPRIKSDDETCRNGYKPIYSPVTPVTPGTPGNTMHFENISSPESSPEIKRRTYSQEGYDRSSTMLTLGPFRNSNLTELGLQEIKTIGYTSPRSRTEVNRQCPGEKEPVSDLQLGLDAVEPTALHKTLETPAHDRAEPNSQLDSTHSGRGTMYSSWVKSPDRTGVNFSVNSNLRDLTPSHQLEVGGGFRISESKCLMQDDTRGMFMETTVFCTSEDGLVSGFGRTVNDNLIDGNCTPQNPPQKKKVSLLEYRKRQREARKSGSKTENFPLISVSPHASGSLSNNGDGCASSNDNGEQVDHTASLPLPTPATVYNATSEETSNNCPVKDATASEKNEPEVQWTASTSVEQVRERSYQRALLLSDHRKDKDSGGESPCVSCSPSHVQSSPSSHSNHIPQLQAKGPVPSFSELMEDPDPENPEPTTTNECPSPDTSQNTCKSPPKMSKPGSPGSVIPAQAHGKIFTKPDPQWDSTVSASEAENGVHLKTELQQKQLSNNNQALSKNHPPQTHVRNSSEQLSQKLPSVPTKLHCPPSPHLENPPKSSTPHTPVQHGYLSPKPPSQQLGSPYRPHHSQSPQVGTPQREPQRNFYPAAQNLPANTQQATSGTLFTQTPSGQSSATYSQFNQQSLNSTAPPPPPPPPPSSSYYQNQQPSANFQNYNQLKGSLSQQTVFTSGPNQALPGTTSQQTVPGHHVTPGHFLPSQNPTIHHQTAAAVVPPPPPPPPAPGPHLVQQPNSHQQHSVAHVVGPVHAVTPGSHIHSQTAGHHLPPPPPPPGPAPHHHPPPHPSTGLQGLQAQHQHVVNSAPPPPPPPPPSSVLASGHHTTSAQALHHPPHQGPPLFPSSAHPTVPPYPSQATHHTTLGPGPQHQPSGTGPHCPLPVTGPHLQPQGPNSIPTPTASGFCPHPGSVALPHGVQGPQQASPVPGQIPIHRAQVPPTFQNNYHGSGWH
UniProt Q8TBB5: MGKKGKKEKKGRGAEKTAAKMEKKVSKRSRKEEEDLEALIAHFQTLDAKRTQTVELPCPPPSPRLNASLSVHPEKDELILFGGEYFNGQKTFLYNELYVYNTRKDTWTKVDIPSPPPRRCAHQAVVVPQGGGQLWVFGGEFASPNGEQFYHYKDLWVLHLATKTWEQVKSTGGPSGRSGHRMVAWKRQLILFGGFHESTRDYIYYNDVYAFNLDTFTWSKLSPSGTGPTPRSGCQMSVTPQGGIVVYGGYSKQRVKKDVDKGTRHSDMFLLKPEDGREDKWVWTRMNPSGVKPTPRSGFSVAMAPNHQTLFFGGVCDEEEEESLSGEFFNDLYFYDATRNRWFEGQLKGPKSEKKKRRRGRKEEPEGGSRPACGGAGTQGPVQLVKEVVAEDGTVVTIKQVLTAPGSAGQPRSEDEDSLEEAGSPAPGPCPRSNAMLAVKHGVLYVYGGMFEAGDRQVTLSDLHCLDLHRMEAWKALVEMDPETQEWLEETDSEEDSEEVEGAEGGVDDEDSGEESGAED
UniProt P50053: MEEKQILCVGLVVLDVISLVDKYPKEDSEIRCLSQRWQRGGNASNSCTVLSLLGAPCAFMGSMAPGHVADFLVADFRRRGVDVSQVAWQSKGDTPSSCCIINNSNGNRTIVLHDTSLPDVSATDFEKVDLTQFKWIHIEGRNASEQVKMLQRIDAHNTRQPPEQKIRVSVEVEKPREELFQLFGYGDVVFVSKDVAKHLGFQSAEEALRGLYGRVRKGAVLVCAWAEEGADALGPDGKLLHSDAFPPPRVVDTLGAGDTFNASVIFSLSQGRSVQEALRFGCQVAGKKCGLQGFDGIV
UniProt Q13601: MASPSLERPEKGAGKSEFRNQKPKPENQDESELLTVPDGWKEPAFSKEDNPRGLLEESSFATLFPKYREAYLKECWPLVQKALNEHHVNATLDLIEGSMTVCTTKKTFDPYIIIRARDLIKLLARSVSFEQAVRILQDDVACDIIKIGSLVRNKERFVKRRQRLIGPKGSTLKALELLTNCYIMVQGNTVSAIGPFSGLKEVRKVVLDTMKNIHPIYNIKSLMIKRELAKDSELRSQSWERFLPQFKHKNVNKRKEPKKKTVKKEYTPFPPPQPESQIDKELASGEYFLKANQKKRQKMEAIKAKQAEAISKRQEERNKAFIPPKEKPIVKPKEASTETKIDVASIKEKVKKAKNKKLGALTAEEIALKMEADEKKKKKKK
UniProt O00522: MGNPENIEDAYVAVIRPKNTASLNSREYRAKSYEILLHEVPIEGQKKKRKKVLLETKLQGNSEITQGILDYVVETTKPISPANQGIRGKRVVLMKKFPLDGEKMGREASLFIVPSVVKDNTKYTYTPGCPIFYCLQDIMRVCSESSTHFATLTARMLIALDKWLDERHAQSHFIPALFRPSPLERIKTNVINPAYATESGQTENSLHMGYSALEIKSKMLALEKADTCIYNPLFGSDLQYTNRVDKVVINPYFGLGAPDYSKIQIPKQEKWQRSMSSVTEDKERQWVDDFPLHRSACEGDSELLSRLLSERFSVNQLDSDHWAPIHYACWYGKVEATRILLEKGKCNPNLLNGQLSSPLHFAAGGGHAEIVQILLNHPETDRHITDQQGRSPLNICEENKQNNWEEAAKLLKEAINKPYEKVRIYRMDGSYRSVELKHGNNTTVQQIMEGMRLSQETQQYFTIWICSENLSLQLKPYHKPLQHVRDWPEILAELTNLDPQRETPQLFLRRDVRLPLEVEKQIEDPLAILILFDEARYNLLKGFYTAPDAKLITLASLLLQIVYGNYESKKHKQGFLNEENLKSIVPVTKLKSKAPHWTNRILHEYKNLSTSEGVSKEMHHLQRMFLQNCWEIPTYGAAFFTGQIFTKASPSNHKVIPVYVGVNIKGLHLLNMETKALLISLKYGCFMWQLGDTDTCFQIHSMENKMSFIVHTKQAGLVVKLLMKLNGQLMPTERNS
UniProt Q8N6L1: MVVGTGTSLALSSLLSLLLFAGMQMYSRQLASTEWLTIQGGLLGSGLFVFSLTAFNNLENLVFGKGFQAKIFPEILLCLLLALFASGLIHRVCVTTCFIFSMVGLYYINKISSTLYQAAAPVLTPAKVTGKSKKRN
UniProt Q96AT1: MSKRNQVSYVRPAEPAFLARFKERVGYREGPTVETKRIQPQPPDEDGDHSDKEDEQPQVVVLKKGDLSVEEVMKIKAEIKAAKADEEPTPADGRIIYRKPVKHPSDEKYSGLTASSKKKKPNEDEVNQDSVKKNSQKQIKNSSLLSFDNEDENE

compound: O=C1NC(=O)C(c2cnc3ccccn23)=C1c1cn2c3c(cc(F)cc13)CN(C(=O)N1CCCCC1)CC2; assay: log2 fold change, soluble protein after heating vs DMSO (PISA); higher = thermal stabilisation; K562 lysate, 10 uM; active = over 0.2 and 3.5 SD of the protein, either way, in both replicates (recomputed)
Summary of the method: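 Log-two fold change in thermal stability relative to solvent controls is reported from duplicates. For each sample, crude K562 extract from dounce-homogenised pellets in PBS pH 7.4 with 1 mM MgCl2, at 1 mg/mL protein, was treated with 10 μM compound for 30 min. Aliquots heated for 3 min across 48°C-58°C were pooled, brought to 0.5% NP-40 at 4°C and cleared at 21,000xg for 90 min. The supernatant was quantified by TMTpro 16plex LC-MS/MS with channel sums equalised.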

log2 fold change, inactive:
LARP4B (UniProt Q92615) -0.028
KIAA1522 isoform 2 (UniProt Q9P206) -0.024
KIF16B isoform 2 (UniProt Q96L93) 0.009
KTN1 (UniProt Q86UP2) 0.004
KIF15 (UniProt Q9NS87) 0.004
LANCL2 (UniProt Q9NS86) -0.058
KLHL7 (UniProt Q8IXQ5) -0.056
KLC2 (UniProt Q9H0B6) -0.061
KDM8 isoform 3 (UniProt Q8N371) -0.002
LARP1B, A0A3B3ISF0 0.015
LAMB1 (UniProt P07942) -0.018
KIF23 isoform 2 (UniProt Q02241) -0.047
LAMTOR5 (UniProt O43504) -0.158
KDM4B (UniProt O94953) -0.048
KNSTRN (UniProt Q9Y448) 0.057
KEL (UniProt P23276) 0.017
KIF5B (UniProt P33176) -0.007
KIAA1191 (UniProt Q96A73) -0.012
KMT2E (UniProt Q8IZD2) 0.05
LARP4 isoform 4 (UniProt Q71RC2) 0.035
KLHDC4 (UniProt Q8TBB5) 0.005
KRAS (UniProt P01116) -0.072
L2HGDH (UniProt Q9H9P8) -0.012
KIF1C (UniProt O43896) 0.057
LAMP1 (UniProt P11279) -0.05
KDM5B isoform 2 (UniProt Q9UGL1) 0.116
KIF13A isoform 4 (UniProt Q9H1H9) -0.004
KHK isoform 2 (UniProt P50053) -0.053
KPTN (UniProt Q9Y664) 0.008
KPNA2 (UniProt P52292) 0.009
KLC4 isoform 3 (UniProt Q9NSK0) -0.041
KIF21A isoform 5 (UniProt Q7Z4S6) 0.007
KNOP1 (UniProt Q1ED39) 0.03
KIF11 (UniProt P52732) -0.033
KIDINS220 isoform 4 (UniProt Q9ULH0) 0.031
KRR1 (UniProt Q13601) 0.101
KRIT1 (UniProt O00522) -0.02
KRTCAP2 isoform 2 (UniProt Q8N6L1) 0.052
KIAA1143 (UniProt Q96AT1) -0.034

2 records picked at random from those above, as already listed:
log2 fold change, inactive:
KEL (UniProt P23276) 0.017
KIF5B (UniProt P33176) -0.007
